Test system: NHDF cells
Experiment: Cytotoxicity assay (MTS, 7 days)
Assay type: cell-based, Human
Description: For that, 96-well tissue plates containing NHDF cells were treated with different concentrations of compounds up to 10 µM for seven days. Control cells were incubated with 0.5% DMSO. At the end of the treatment, cell viability was then analyzed through the colorimetric method of MTS (Promega, Madison, WI, USA). […] Data were analyzed using GraphPad Prim 8.0 software. IC50 and CC50 calculations were performed by fitting the values of proliferation/viability in percentage to a non-linear curve followed by dose–response inhibition analysis through log(inhibitor) vs. normalized response.

Row | Compound | SI (Selectivity Index, CC50 NHDF cells/IC50 T. gondii)
1 | Oc1cccc(C(Nc2nccs2)c2ccc3cccnc3c2O)c1 (stereo not shown) [MMV642550] | 21
2 | O=S(=O)(Nc1cccc2cccnc12)c1ccccc1 [MMV1578890] | 9
3 | CCc1nc(N)nc(N)c1C#CC(C)c1cc(OC)cc(-c2ccncc2)c1 (stereo not shown) [MMV1580844] | 7447
4 | Fc1ccc(-c2nc(-c3c[nH]c4ccc(Br)cc34)[nH]c2-c2ccc(F)cc2)cc1 [MMV1593537] | 6
5 | Nc1nc(Nc2ccc3nc(-c4ccc(F)cc4)cc(N)c3c2)cc(-c2ccccc2)n1 [MMV1593541] | 67
6 | Cc1nc2ccc(Oc3ccccc3)cc2c2c1CCN2CCc1ccccc1 [MMV1634399] | 26
7 | COc1ccc2sc3c(c2c1)NC(C)CNC3=O (stereo not shown) [MMV1782115] | 58

From article PMC10747034 (Tropical Medicine and Infectious Disease, 2023)
